Reference: the supplement of paper PMC6078165
Values are relative to the signal before dosing, not to a vehicle control; the signal also falls without drug.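 The cancer cells are triple-negative breast cancer lines of basal-like or mesenchymal-like type, grown without fibroblasts. A drop in red signal reflects loss of mitochondrial integrity, a stand-in for apoptotic death.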

Experiments:
MDAMB231 = experiment: relative JC-1 red fluorescence (viability) vs pre-drug, monoculture (fraction); higher = more viable cancer cells; details: coculture fibroblast: none (monoculture)
Method: (§1)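 JC-1 labelled TNBC cells grown in monoculture (density kept equal with unlabelled cancer cells) in 384-well plates in FluoroBrite medium, treated with one of 42 anticancer drugs at 0.1, 1, 10 or 100 uM. JC-1 red fluorescence (mitochondrial integrity, surrogate of apoptotic death) was read by plate reader every 8 h for 72 h. Values are normalised to each well's pre-drug value, with background from alamethicin. The stock of one drug was tenfold lower, so its dose labels may be too high. Monoculture values are repeated alongside each fibroblast plate and are averaged here.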

MDAMB436 = experiment: as above; details: coculture fibroblast: none (monoculture)
Method: as §1

CN(C)CCOc1ccc(/C(=C(/CCCl)c2ccccc2)c2ccccc2)cc1 [Toremifene]
relative JC-1 red fluorescence
Details	8 h	16 h	24 h	32 h	40 h	48 h	56 h	64 h	72 h
MDAMB231, 0.1 µM	0.7528	0.667	0.738	0.653	0.616	0.625	0.605	0.648	0.6493
MDAMB231, 1 µM	0.768	0.769	0.624	0.668	0.621	0.584	0.547	0.55	0.54
MDAMB231, 10 µM	0.811	0.83374	0.822	0.849	0.812	0.787	0.763	0.763	0.746
MDAMB231, 100 µM	0.47	0.345	0.361	0.206	0.135	0.0855	0.0419	0.0264	0.03
MDAMB436, 0.1 µM	0.869	0.7206	0.739	0.6915	0.676	0.682	0.671	0.674	0.688
MDAMB436, 1 µM	0.884	0.794	0.7739	0.7122	0.683	0.666	0.643	0.633	0.6226
MDAMB436, 10 µM	0.907	0.88	0.869	0.809	0.769	0.729	0.692	0.66	0.636
MDAMB436, 100 µM	0.537	0.404	0.359	0.282	0.227	0.183	0.146	0.111	0.0839
